# In PubChem BioAssay AID528 (NMMLSC, 2006):
# Sequences of proteins named here, by UniProt entry; tags and fusion partners are left off.
# UniProt P13612, whole entry, looked up: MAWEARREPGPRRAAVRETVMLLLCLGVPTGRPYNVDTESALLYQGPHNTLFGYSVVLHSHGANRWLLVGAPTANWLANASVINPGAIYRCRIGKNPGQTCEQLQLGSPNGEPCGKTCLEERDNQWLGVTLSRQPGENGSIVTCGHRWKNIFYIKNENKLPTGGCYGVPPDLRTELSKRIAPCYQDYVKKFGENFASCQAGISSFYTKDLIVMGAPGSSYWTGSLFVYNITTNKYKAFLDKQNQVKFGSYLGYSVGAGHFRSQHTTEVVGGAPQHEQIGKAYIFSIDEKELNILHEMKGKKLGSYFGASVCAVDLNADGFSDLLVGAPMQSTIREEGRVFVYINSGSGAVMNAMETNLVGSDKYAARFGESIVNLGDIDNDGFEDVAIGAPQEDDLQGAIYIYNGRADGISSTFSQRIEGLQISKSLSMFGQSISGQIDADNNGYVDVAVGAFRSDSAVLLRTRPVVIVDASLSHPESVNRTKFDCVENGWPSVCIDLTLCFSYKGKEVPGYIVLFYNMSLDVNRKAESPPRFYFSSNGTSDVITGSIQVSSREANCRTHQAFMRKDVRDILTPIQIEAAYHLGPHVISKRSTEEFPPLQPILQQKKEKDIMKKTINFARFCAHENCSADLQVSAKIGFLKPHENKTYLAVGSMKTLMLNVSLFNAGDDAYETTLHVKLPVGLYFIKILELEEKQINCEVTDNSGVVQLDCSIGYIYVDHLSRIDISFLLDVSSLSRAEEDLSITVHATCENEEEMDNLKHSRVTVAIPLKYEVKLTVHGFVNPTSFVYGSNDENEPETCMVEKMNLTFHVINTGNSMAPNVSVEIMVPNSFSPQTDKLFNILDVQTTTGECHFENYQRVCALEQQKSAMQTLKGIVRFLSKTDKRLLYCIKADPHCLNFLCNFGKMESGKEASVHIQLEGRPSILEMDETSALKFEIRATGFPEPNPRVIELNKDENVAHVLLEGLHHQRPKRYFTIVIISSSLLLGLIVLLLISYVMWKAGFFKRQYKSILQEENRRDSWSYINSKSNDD
# The campaign covered roughly 24,000 compounds. Fewer than 10 were called active. These results got no clear call from the source, so the numbers are uncertain.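 Rule for the calls: active = fluorescent ligand binding to cells raised by more than 40% of the manganese-induced maximum; inconclusive = compound's own fluorescence above 85% of the ligand control signal; inactive = the rest.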
# Molecular target: Integrin alpha-4 (Homo sapiens) (UniProt P13612)
# Experiment: enhancers of LDV-FITC binding to VLA-4 integrin, primary screen, Jurkat cells, flow cytometry (AID 528)
row,Structure (SMILES),outcome
1,Cc1ccc(C)c(NP(C)(=O)Oc2ccccc2)c1 (stereo unspecified),inconclusive
